These results are taken from the supplement of paper PMC8728848.

Assay in all cases: glycan array binding signal (z-score within array); higher = stronger binding
What all share (conditions): glycan notation: IUPAC condensed, linker removed

Assay [1] deals with Gal(b1-4)GlcNAc(b1-2)Man(a1-6)[GlcNAc(b1-2)Man(a1-3)]Man(b1-4)GlcNAc(b1-4)GlcNAc. A digest of the protocol:
(§1)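 Columns mapping to the same glycan were averaged after glycan names were converted to IUPAC-condensed notation. The data come from 3228 arrays in the Consortium for Functional Glycomics database, limited to those with an available protein sequence. Binding is reported as a within-array Z-score averaged across arrays of one protein sequence and across linkers.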

The target in assay [2] is Gal(b1-4)GlcNAc(b1-2)Man(a1-6)[Man(a1-3)]Man(b1-4)GlcNAc(b1-4)GlcNAc. A digest of the protocol:
as §1

The target in assay [3] is Gal(b1-4)GlcNAc(b1-2)[Gal(b1-4)GlcNAc(b1-4)]Man(a1-3)[Gal(b1-4)GlcNAc(b1-2)Man(a1-6)]Man(b1-4)GlcNAc(b1-4)GlcNAc. In a few lines: as §1
Assay [4] addresses Gal(b1-4)GlcNAc(b1-2)[Gal(b1-4)GlcNAc(b1-4)]Man(a1-3)[Gal(b1-4)GlcNAc(b1-2)[Gal(b1-4)GlcNAc(b1-6)]Man(a1-6)]Man(b1-4)GlcNAc(b1-4)GlcNAc. A digest of the protocol: as §1
The target in assay [5] is Gal(b1-4)GlcNAc(b1-2)[Gal(b1-4)GlcNAc(b1-4)]Man(a1-3)[GlcNAc(b1-4)][Gal(b1-4)GlcNAc(b1-2)Man(a1-6)]Man(b1-4)GlcNAc(b1-4)GlcNAc. A digest of the protocol: as §1
Assay [6] addresses Gal(b1-4)GlcNAc(b1-2)[Gal(b1-4)GlcNAc(b1-4)]Man(a1-3)[GlcNAc(b1-4)][Gal(b1-4)GlcNAc(b1-2)[Gal(b1-4)GlcNAc(b1-6)]Man(a1-6)]Man(b1-4)GlcNAc(b1-4)GlcNAc. In a few lines:
as §1

The target in assay [7] is Gal(b1-4)GlcNAc(b1-2)[Gal(b1-4)GlcNAc(b1-6)]Man(a1-6)[Gal(b1-4)GlcNAc(b1-2)Man(a1-3)]Man(b1-4)GlcNAc(b1-4)GlcNAc. In a few lines: as §1
The target of assay [8] is Gal(b1-4)GlcNAc(b1-2)[Gal(b1-4)GlcNAc(b1-6)]Man(a1-6)[Gal(b1-4)GlcNAc(b1-2)Man(a1-3)]Man(b1-4)GlcNAc(b1-4)[Fuc(a1-6)]GlcNAc. A digest of the protocol: as §1
In assay [9] the target is Gal(b1-4)GlcNAc(b1-2)[Gal(b1-4)GlcNAc(b1-6)]Man(a1-6)[GlcNAc(b1-4)][Gal(b1-4)GlcNAc(b1-2)Man(a1-3)]Man(b1-4)GlcNAc(b1-4)GlcNAc. A digest of the protocol:
as §1

Assay [10] addresses Gal(b1-4)GlcNAc(b1-2)[Gal(b1-4)GlcNAc(b1-6)]Man(a1-6)[GlcNAc(b1-4)][Gal(b1-4)GlcNAc(b1-2)[Gal(b1-4)GlcNAc(b1-4)]Man(a1-3)]Man(b1-4)GlcNAc(b1-4)[Fuc(a1-6)]GlcNAc. In a few lines: as §1
The target of assay [11] is Gal(b1-4)GlcNAc(b1-3)Gal(b1-3)GalNAc. A digest of the protocol:
as §1

In assay [12] the target is Gal(b1-4)GlcNAc(b1-3)Gal(b1-3)GlcNAc. A digest of the protocol:
as §1

Assay [13] has as its target Gal(b1-4)GlcNAc(b1-3)Gal(b1-4)Glc. In a few lines:
as §1

Assay [14] addresses Gal(b1-4)GlcNAc(b1-3)Gal(b1-4)GlcNAc. A digest of the protocol: as §1
For assay [15], the target named is Gal(b1-4)GlcNAc(b1-3)Gal(b1-4)GlcNAc(b1-2)Man(a1-3)[Gal(b1-4)GlcNAc(b1-3)Gal(b1-4)GlcNAc(b1-2)Man(a1-6)]Man(b1-4)GlcNAc(b1-4)GlcNAc. A digest of the protocol:
as §1

Assay [16] concerns the target Gal(b1-4)GlcNAc(b1-3)Gal(b1-4)GlcNAc(b1-2)Man(a1-3)[Gal(b1-4)GlcNAc(b1-3)Gal(b1-4)GlcNAc(b1-2)Man(a1-6)]Man(b1-4)GlcNAc(b1-4)[Fuc(a1-6)]GlcNAc. In a few lines: as §1
The target in assay [17] is Gal(b1-4)GlcNAc(b1-3)Gal(b1-4)GlcNAc(b1-2)[Gal(b1-4)GlcNAc(b1-3)Gal(b1-4)GlcNAc(b1-6)]Man(a1-6)[Gal(b1-4)GlcNAc(b1-3)Gal(b1-4)GlcNAc(b1-2)Man(a1-3)]Man(b1-4)GlcNAc(b1-4)GlcNAc. A digest of the protocol:
as §1

The target in assay [18] is Gal(b1-4)GlcNAc(b1-3)Gal(b1-4)GlcNAc(b1-2)[Gal(b1-4)GlcNAc(b1-3)Gal(b1-4)GlcNAc(b1-6)]Man(a1-6)[Gal(b1-4)GlcNAc(b1-3)Gal(b1-4)GlcNAc(b1-2)Man(a1-3)]Man(b1-4)GlcNAc(b1-4)[Fuc(a1-6)]GlcNAc. A digest of the protocol:
as §1

The target in assay [19] is Gal(b1-4)GlcNAc(b1-3)Gal(b1-4)GlcNAc(b1-3)Gal(b1-4)GlcNAc. In a few lines: as §1
Assay [20] addresses Gal(b1-4)GlcNAc(b1-3)Gal(b1-4)GlcNAc(b1-3)Gal(b1-4)GlcNAc(b1-2)Man(a1-3)[Gal(b1-4)GlcNAc(b1-3)Gal(b1-4)GlcNAc(b1-3)Gal(b1-4)GlcNAc(b1-2)Man(a1-6)]Man(b1-4)GlcNAc(b1-4)GlcNAc. A digest of the protocol:
as §1

In assay [21] the target is Gal(b1-4)GlcNAc(b1-3)Gal(b1-4)GlcNAc(b1-3)Gal(b1-4)GlcNAc(b1-2)Man(a1-3)[Gal(b1-4)GlcNAc(b1-3)Gal(b1-4)GlcNAc(b1-3)Gal(b1-4)GlcNAc(b1-2)Man(a1-6)]Man(b1-4)GlcNAc(b1-4)[Fuc(a1-6)]GlcNAc. A digest of the protocol: as §1
The target of assay [22] is Gal(b1-4)GlcNAc(b1-3)Gal(b1-4)GlcNAc(b1-3)Gal(b1-4)GlcNAc(b1-2)[Gal(b1-4)GlcNAc(b1-3)Gal(b1-4)GlcNAc(b1-3)Gal(b1-4)GlcNAc(b1-6)]Man(a1-6)[Gal(b1-4)GlcNAc(b1-3)Gal(b1-4)GlcNAc(b1-3)Gal(b1-4)GlcNAc(b1-2)Man(a1-3)]Man(b1-4)GlcNAc(b1-4)[Fuc(a1-6)]GlcNAc. A digest of the protocol:
as §1

Some of the results follow.

B1: BIp1-His (Cryptococcus neoformans) (protein)
chain: MFTKIFVALFAATAVLSAPVESAEKRITHTGRATFYSPSVGIGACGWQNTDEELVVALNAPQYALNADHNCGQSVRITNEQNGNQEIAKVVDLCPGCNDGDLDMSPALFGALNNNDFDQGVFPISWNFLPRDDTSSSN
Turning to B1, the “glycan array binding signal (z-score)” value in assay [1] is -0.958; in assay [2] it was 0.81; in assay [3], 0.209; in assay [4], -0.558; in [5], -0.26; in assay [6] it was 0.415. The “glycan array binding signal (z-score)” value is 0.266 in assay [7]; 0.608 in [8]; -0.436 in assay [9]; -0.02 in [10]; -0.667 in assay [11]; -0.008 in assay [12]. For the same molecule, the “glycan array binding signal (z-score)” value is -0.068 in assay [13]; -0.127 in assay [14]; 1.7 in assay [15]; 2.12 in assay [16]; 1.75 in [17]; 0.623 in assay [18]. Further, the “glycan array binding signal (z-score)” value in assay [19] is -0.308; in assay [20], 1.97; in assay [21] it was 1.55; in assay [22], 3.26.
